These are yes or no findings as the source states them, for the method shown.
Biological target: T1, K(FEFK)2K
T1 construct: designed amphipathic self-assembling peptide, L-amino acids; printed in short form K(FEFK)2K and written out here; forms beta-sheet-rich fibres and a hydrogel at pH 7; also called base peptide; peptide 1; source: synthetic peptide; bought: LifeTein Inc. (HCl salt, nominal purity 95%)
T1 peptide: KFEFKFEFKK
Assay: condition: 3.75 mg mL^-1 of each peptide (mass ratio 1:1); FRET or BRET; FITC/Dabcyl quenching in mixed hydrogels: base peptide 3.75 mg mL^-1 plus secondary peptide, total 7.5 mg mL^-1 (mass ratio 1:1), pH 7, water; powders mixed before dissolving, pH raised stepwise with NaOH; quenching percentage compared with base hydrogels at 3.75 and 7.5 mg mL^-1; both purified

## AEAKAEAK [(AEAK)2]
  binding: no binding

## VEVKVEVK [(VEVK)2]
  binding: no binding
